Results from doi:10.1101/2021.06.30.450611.
Residue numbers refer to the chain shown, from its start. Numbers in names are those of the source. Results are given in words; binding and its absence hold for the method and conditions named. Binding calls can cover weak binding; strength is not graded here. Sequences can lack the tags named with a protein.

B1: full-length recombinant human KIF1C-GFP (wildtype) (protein, UniProt O43896 1-1103)
chain: MAGASVKVAVRVRPFNARETSQDAKCVVSMQGNTTSIINPKQSKDAPKSFTFDYSYWSHTSTEDPQFASQQQVYRDIGEEMLLHAFEGYNVCIFAYGQTGAGKSYTMMGRQEPGQQGIVPQLCEDLFSRVSENQSAQLSYSVEVSYMEIYCERVRDLLNPKSRGSLRVREHPILGPYVQDLSKLAVTSYADIADLMDCGNKARTVAATNMNETSSRSHAVFTIVFTQRCHDQLTGLDSEKVSKISLVDLAGSERADSSGARGMRLKEGANINKSLTTLGKVISALADMQSKKRKSDFIPYRDSVLTWLLKENLGGNSRTAMIAALSPADINYEETLSTLRYADRTKQIRCNAIINEDPNARLIRELQEEVARLRELLMAQGLSASALEGLKTEEGSVRGALPAVSSPPAPVSPSSPTTHNGELEPSFSPNTESQIGPEEAMERLQETEKIIAELNETWEEKLRKTEALRMEREALLAEMGVAVREDGGTVGVFSPKKTPHLVNLNEDPLMSECLLYHIKDGVTRVGQVDMDIKLTGQFIREQHCLFRSIPQPDGEVVVTLEPCEGAETYVNGKLVTEPLVLKSGNRIVMGKNHVFRFNHPEQARLERERGVPPPPGPPSEPVDWNFAQKELLEQQGIDIKLEMEKRLQDLENQYRKEKEEADLLLEQQRLYADSDSGDDSDKRSCEESWRLISSLREQLPPTTVQTIVKRCGLPSSGKRRAPRRVYQIPQRRRLQGKDPRWATMADLKMQAVKEICYEVALADFRHGRAEIEALAALKMRELCRTYGKPDGPGDAWRAVARDVWDTVGEEEGGGAGSGGGSEEGARGAEVEDLRAHIDKLTGILQEVKLQNSSKDRELQALRDRMLRMERVIPLAQDHEDENEEGGEVPWAPPEGSEAAEEAAPSDRMPSARPPSPPLSSWERVSRLMEEDPAFRRGRLRWLKQEQLRLQGLQGSGGRGGGLRRPPARFVPPHDCKLRFPFKSNPQHRESWPGMGSGEAPTPLQPPEEVTPHPATPARRPPSPRRSHHPRRNSLDGGGRSRGAGSAQPEPQHFQPKKHNSYPQPPQPYPAQRPPGPRYPPYTTPPRMRRQRSAPDLKESGAAV
B2: full-length recombinant human KIF1C(R169W)-GFP (protein, UniProt O43896 1-1103)
chain: B1 chain with R169W
B3: full-length recombinant human KIF1C(P176L)-GFP (protein, UniProt O43896 1-1103)
chain: B1 chain with P176L

target: microtubules of the optical trapping experiments; assay: single bead optical trap

binding, binds:
B1
B2
B3
